# From article PMC9663303
# Protein sequences, listed by entry. Tags and fused reporters are not part of them. Lines headed by an entry give the natural chain unless they say otherwise; changes in a name come on top. Residues count along the entry.
# UniProt P09919, residues 31-207: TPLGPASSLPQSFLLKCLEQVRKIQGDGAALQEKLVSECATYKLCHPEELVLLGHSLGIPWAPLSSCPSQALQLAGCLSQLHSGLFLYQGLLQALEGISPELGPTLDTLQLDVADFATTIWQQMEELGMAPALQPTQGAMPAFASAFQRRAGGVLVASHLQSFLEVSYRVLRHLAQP
# UniProt Q09472: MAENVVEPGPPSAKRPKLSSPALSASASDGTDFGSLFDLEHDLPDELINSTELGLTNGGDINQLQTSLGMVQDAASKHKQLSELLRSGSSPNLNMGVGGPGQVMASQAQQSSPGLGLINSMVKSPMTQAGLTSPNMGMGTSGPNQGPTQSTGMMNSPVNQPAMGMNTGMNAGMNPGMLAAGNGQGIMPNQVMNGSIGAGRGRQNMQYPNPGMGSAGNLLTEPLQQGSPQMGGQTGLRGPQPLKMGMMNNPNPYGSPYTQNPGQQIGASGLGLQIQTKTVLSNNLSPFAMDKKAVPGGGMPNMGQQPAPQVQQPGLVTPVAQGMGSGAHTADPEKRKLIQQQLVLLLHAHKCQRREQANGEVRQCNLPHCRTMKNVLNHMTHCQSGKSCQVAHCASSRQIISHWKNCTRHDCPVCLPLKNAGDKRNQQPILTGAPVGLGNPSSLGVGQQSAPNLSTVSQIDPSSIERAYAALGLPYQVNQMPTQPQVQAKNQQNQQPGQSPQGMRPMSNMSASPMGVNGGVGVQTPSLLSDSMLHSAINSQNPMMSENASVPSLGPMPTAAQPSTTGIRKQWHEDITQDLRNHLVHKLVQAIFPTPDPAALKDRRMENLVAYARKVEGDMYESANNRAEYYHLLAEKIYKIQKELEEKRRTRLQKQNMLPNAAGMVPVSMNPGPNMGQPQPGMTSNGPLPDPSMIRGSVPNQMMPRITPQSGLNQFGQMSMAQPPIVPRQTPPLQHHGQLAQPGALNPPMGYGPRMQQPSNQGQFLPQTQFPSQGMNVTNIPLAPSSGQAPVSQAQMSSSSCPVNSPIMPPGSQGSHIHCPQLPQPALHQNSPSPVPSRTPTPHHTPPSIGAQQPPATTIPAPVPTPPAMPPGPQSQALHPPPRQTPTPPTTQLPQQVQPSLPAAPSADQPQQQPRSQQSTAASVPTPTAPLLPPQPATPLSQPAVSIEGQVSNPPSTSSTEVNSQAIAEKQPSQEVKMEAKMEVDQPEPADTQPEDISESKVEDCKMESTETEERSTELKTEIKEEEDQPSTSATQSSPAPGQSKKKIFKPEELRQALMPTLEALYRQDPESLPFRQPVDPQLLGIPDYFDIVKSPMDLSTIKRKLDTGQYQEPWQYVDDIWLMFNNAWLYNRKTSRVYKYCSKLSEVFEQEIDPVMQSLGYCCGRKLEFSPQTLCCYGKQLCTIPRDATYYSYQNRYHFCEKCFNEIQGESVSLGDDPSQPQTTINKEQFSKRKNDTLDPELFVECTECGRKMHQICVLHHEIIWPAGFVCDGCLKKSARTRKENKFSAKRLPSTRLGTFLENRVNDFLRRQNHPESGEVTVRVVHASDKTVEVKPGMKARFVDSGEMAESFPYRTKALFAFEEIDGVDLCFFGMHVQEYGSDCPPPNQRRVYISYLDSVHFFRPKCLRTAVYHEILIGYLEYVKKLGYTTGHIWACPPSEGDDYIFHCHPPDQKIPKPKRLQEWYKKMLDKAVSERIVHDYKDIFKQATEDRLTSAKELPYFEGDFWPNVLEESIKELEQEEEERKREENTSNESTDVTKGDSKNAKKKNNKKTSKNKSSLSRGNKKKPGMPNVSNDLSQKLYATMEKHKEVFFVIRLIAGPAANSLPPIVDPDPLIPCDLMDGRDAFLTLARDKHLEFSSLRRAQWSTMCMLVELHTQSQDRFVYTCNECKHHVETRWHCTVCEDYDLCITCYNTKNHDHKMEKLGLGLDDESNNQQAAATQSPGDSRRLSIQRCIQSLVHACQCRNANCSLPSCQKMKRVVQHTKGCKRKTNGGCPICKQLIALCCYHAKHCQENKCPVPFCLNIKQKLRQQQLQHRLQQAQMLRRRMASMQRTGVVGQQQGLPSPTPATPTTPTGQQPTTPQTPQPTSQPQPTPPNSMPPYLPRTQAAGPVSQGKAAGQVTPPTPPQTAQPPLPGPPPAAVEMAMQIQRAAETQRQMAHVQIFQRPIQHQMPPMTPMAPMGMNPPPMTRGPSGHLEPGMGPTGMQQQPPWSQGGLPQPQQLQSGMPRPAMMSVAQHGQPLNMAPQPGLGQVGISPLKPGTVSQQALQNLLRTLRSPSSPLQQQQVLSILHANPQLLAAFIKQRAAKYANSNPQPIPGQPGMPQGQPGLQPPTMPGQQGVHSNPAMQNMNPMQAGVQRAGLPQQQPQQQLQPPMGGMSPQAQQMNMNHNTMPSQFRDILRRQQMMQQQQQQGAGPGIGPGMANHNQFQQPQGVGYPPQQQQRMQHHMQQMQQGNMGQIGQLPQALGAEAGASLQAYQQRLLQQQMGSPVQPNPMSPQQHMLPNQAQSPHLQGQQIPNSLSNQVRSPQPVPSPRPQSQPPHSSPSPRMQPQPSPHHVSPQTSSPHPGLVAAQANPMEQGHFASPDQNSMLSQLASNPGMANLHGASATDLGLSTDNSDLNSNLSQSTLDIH
# UniProt P08246, residues 30-267: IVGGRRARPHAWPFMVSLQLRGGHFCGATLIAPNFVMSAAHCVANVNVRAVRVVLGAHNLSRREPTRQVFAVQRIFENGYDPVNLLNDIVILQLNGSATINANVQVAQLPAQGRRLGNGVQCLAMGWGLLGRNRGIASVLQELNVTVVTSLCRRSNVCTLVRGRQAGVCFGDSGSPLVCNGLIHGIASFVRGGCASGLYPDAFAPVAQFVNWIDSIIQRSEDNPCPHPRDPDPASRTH
# UniProt P40225, residues 22-353: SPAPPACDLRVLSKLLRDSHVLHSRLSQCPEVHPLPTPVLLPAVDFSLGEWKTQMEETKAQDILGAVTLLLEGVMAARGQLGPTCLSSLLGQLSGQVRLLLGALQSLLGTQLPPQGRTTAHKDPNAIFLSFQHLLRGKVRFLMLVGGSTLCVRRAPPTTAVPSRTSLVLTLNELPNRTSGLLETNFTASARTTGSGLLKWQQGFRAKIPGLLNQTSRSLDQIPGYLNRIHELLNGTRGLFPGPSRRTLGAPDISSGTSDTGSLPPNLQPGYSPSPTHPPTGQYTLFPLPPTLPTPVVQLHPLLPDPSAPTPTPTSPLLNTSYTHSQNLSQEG
# Results are given in words; binding and its absence hold for the method and conditions named. Binding seen in cells or lysates may run through a third protein. Some entries that bind do so weakly or less than the wild type.
# Legend:
# [1] = molecular target: Granulocyte colony-stimulating factor (human (endogenous in KG1a)) (UniProt P09919); test: co-IP; KG1a cells lysed in non-denaturing lysis buffer; about 300 ug protein with 1 ug G-CSF antibody or EP300 antibody and protein A/G magnetic beads at 4 °C overnight; bound proteins by WB with anti-ELANE or anti-TPO; rabbit IgG as negative control
# [2] = molecular target: E1A binding protein P300 (human (endogenous in KG1a)) (UniProt Q09472); test: as above
binding [1],binding [2],Substance
binds,,neutrophil elastase (from UniProt P08246 30-267) (enzyme)
,binds,Thrombopoietin (from UniProt P40225 22-353) (ligand)
